# PubChem BioAssay AID2685 (National Center for Advancing Translational Sciences (NCATS), 2010)
# Some of the results follow. Shown are side measurements of this screen, not its main read-out; they come without a call. Most of these compounds were active or inconclusive in the main read-out, so they are no random draw. The note in brackets gives the kind of curve behind each potency; many fits are weak.
# Assay: qHTS Assay for Lipid Storage Modulators in Drosophila S3 Cells;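 as to cell number change: cells counted by Cell Tracker Red CMTPX staining in the red channel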
# Conditions: BODIPY lipid droplet fluorescence, 18-24 h; for cell number change: measured here: cell count max response, cells fed with added oleic acid
# Method in brief: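 Laser-scanning cytometry quantifies lipid droplet accumulation (500–530 nm total intensity; droplet/cell object ratio) in oleic acid-fed (400 uM added) Drosophila S3 cells treated with a concentration series. 20 uM Triacsin C defined 100% inhibition.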
# [1] = measured here: cell number channel AC50, cells fed with added oleic acid
# [2] = measured here: lipid fluorescence (Fed channel) AC50, cells fed with added oleic acid
Compound,cell number change,AC50 [1],AC50 [2]
CC1(c2nnc(Cc3ccccc3)o2)CC(c2cccc([N+](=O)[O-])c2)=NO1 (stereo unspecified),1.04%,–,–
COc1ccc(C2=CSC3=NNC4(CCCCC4)NN23)cc1,5.56%,"146 nM [falling, partial curve, poor fit]",–
Cc1ccccc1CNc1ccc(C(CC(N)=O)NC(=O)c2ccc(Br)cc2)cc1[N+](=O)[O-] (stereo unspecified),24.3%,–,–
O=C(Nc1ccccc1F)c1cc(C(=O)Nc2ccccc2F)cc([N+](=O)[O-])c1,-29.1%,–,"18400 nM [falling, single point]"
O=C1CC(c2cccc(Oc3ccccc3)c2)NC(=O)N1 (stereo unspecified),30.3%,"14600 nM [rising, partial curve, poor fit]","14600 nM [rising, partial curve, poor fit]"
Fc1cccc(Cn2cc(C(=S)N3CCCCC3)c3ccccc32)c1,–,"2910 nM [rising, partial curve]",–
Nc1cc(=O)[nH]c(SCC(=O)Nc2nnc(-c3ccccc3)s2)n1,-4.42%,"146 nM [falling, full curve, poor fit]","146 nM [falling, full curve, poor fit]"
Cc1c(NC(=O)c2ccc3c(c2)OCO3)cccc1-c1nc2ncccc2o1,–,"51.7 nM [rising, full curve, poor fit]",–
Cc1ccc(C(=O)OC(C)C(=O)NC2CCCCC2C)s1 (stereo unspecified),3.67%,–,"5.17 nM [rising, full curve, poor fit]"
Cc1noc(/C=C/c2ccccn2)c1[N+](=O)[O-],-29.8%,–,"10300 nM [falling, partial curve]"
OCC1(CO)COC2(CCCC2)N1,4.43%,–,–
CC(Sc1nc2ccccc2c(=O)n1CC1CCCO1)C(=O)N(C)c1ccccc1 (stereo unspecified),-19.6%,–,"291 nM [falling, partial curve, poor fit]"
Cc1nc(-c2cccnc2)sc1C(=O)Nc1ccc(F)cc1F,-31.9%,–,"4.61 nM [falling, full curve, poor fit]"
COc1ccc(N2CCN(C(=O)c3ccc(COc4ccc([N+](=O)[O-])cc4)o3)CC2)cc1,-11%,–,"3660 nM [rising, partial curve]"
O=C(CNC(=O)c1ccccc1F)OCc1nc2ccccc2s1,0.841%,–,–
CC(CC(=O)N(CCC1=CCCCC1)c1c(N)n(Cc2ccccc2)c(=O)[nH]c1=O)c1ccccc1 (stereo unspecified),-32.6%,"29100 nM [falling, single point]",–
COc1ccc(CC(=O)Nc2cccc(S(=O)(=O)N3CCCC3)c2)cc1OC,-34.2%,"10300 nM [falling, partial curve, poor fit]","23100 nM [falling, partial curve]"
Cc1oc(-c2ccccc2Cl)nc1CSc1nc2c(c(=O)[nH]1)CCC2,8.15%,–,"16400 nM [rising, single point]"
O=C(CCCCCCCCC(=O)N/N=C/c1ccco1)N/N=C/c1ccco1,29.6%,–,"14600 nM [rising, single point]"
COc1ccc(OC)c(NC(=O)CNC(=O)Cn2c(C)cc3ccccc3c2=O)c1,-55.5%,"29100 nM [falling, single point]",–
Cc1ccc(NC(=O)/C=C/c2ccc([N+](=O)[O-])s2)c(C)c1,-34.9%,"1640 nM [falling, full curve, poor fit]","1640 nM [falling, partial curve, poor fit]"

# 2 neighbouring compounds from above, quoted:
Compound,cell number change,AC50 [1],AC50 [2]
O=C(CNC(=O)c1ccccc1F)OCc1nc2ccccc2s1,0.841%,–,–
CC(CC(=O)N(CCC1=CCCCC1)c1c(N)n(Cc2ccccc2)c(=O)[nH]c1=O)c1ccccc1 (stereo unspecified),-32.6%,"29100 nM [falling, single point]",–

# Further entries

Compound,cell number change,AC50 [1],AC50 [2]
O=C(N/N=C/c1ccc2c(c1)OCO2)c1ccc(NC(=O)c2ccc(F)cc2)cc1,17.1%,–,"8200 nM [falling, single point]"
COc1ccc(N2CCN(CC(O)COC(c3ccccc3)c3ccccc3)CC2)cc1 (stereo unspecified),-14.3%,–,–
COc1ccc(-c2cn(-c3ccc(C)cc3)c(=O)n2CC(=O)Nc2ccc(OC)c(OC)c2)cc1,42.6%,"2310 nM [rising, partial curve]",–
Cc1ccsc1/C=N/NC(=O)Nc1ccccc1,–,"651 nM [rising, single point]","580 nM [rising, single point]"
C[C@H](NC(=O)[C@@H]1Cc2ccccc2CN1)C(=O)Nc1ccc2c(c1)OCO2,10.6%,"3260 nM [rising, single point]",–
CC(C)(C)C(=O)Nc1nc(-c2ccccc2)ns1,-32%,"29100 nM [falling, single point]","29100 nM [falling, single point]"
Cc1oc(-c2ccccc2F)nc1CN1CCC(C(=O)NCc2cccs2)CC1,15%,–,–
COc1cc(OC)cc(-c2c(-c3cccs3)c3cc(-c4ccc(OC)c(OC)c4)ccc3n2C)c1,26.6%,–,"18400 nM [rising, partial curve, poor fit]"
CCOC(=O)N1CCN(C(=O)COc2ccc(S(=O)(=O)NC3CCCCC3)cc2C)CC1,–,"4110 nM [rising, partial curve]",–
COc1ccc(NC(=O)c2ccc3c(c2)NC(=O)CS3)cc1S(=O)(=O)Nc1ccc(Br)cc1,-22.3%,–,–
Cc1ccc(Cn2nc3c4cc(F)ccc4n(Cc4ccc(F)cc4)cc-3c2=O)cc1,-5.56%,–,–
O=C1C=C(c2ccc3[nH]ccc3c2)C[C@@H](c2ccc(F)cc2)C1,-4.98%,–,"1160 nM [falling, single point]"
O=c1c(-c2ccccc2)c[nH]n1-c1cccc([N+](=O)[O-])c1,-12.4%,–,"4.11 nM [rising, full curve, poor fit]"
COC(=O)/C(=C\Nc1ccc(Cl)cc1Cl)NC(=O)c1ccccc1,-15.8%,–,"517 nM [rising, full curve]"
COc1ccc(Cc2nnc(SCC(=O)Nc3ccc(N4CCOCC4)cc3)o2)cc1,21%,–,"2310 nM [rising, partial curve]"
O=S1(=O)N=C2CCCCCN2C(c2ccc(F)cc2)N1 (stereo unspecified),-44.2%,"231 nM [falling, partial curve, poor fit]","651 nM [falling, full curve, poor fit]"
O=C(/C=C/c1ccccc1)NC1CCCc2ccccc21 (stereo unspecified),17.2%,–,"5.17 nM [falling, full curve, poor fit]"
Cc1ccc(C)c(NC(=O)CSc2nc(C)cs2)c1,-26.3%,–,"51.7 nM [falling, full curve, poor fit]"
O=C1N[C@H](Cc2ccccc2)CO1,15.4%,–,"32600 nM [rising, single point]"
Cc1cccc(N2CCN(S(=O)(=O)c3ccc4c(c3)NC(=O)CS4)CC2)c1C,-21.1%,–,"9200 nM [falling, partial curve]"
Cc1cccc(C(=O)n2cnnc2N)c1,-0.264%,–,–

Compound,cell number change,AC50 [1],AC50 [2]
COc1ccc(N2CCN(C3CC(=O)NC3=O)CC2)cc1 (stereo unspecified),-8.72%,–,"231 nM [falling, full curve, poor fit]"
CCOc1ccc(NC2=CC(=O)CCC2)cc1,24.8%,–,"18400 nM [rising, partial curve, poor fit]"
CCOc1ccc(N2CCCCn3c2nc2c3c(=O)[nH]c(=O)n2C)cc1,8.69%,"517 nM [falling, single point]","4110 nM [rising, full curve, poor fit]"
O=C1C(=O)N(O)C2CCCCC2N1O (stereo unspecified),-26.2%,–,"103 nM [falling, full curve, poor fit]"
CCOC(=O)C1CCCN(C(=O)c2ccc3oc(CCc4ccccc4)nc3c2)C1 (stereo unspecified),6.6%,–,"130 nM [falling, full curve, poor fit]"
COc1cc(Cl)c(S(=O)(=O)N2CCN(Cc3ccc4c(c3)OCO4)CC2)cc1Cl,-8.25%,–,–
CCOc1cc2[nH]c(=O)n(CCCCCC(=O)NCc3ccco3)c(=O)c2cc1OCC,-53.9%,"29100 nM [falling, single point]",–
CCOC(=O)c1c(C)n(C)c2ccc(O)c(CN(CC)CC)c12,52.4%,"32600 nM [rising, single point]","29100 nM [rising, partial curve]"
COc1ccc(/C=C(\C#N)C(=O)OC2CCOC2=O)cc1 (stereo unspecified),–,–,"65.1 nM [falling, partial curve, poor fit]"
O=C(CO/N=C/c1ccc(OC(F)F)cc1)NC1CCCCCC1,–,"580 nM [rising, single point]",–
O=C(N/C(=C\c1ccc([N+](=O)[O-])cc1)C(=O)N1CCCCC1)c1ccco1,14.6%,–,–
O=S1(=O)CC(O)C(N(CCO)C(=S)Nc2ccccc2)C1 (stereo unspecified),14.3%,–,"259 nM [rising, partial curve, poor fit]"
CCCn1c(N)c(C(=O)CN2CCc3ccccc3C2)c(=O)n(C)c1=O,6.49%,–,"820 nM [rising, full curve, poor fit]"
CCOC(=O)C1CCN(C(=O)CNC(=O)c2nn(-c3ccc(OC)c(Cl)c3)c(=O)c3ccccc23)CC1,-9.52%,"3660 nM [falling, single point]","6510 nM [falling, single point]"
O=C(CCN1C(=O)C2C3C=CC(C3)C2C1=O)Nc1ccccc1F (stereo unspecified),2.63%,–,–
O=C1C=C(NC2CCCCC2)CCC1,23.9%,–,"651 nM [rising, full curve, poor fit]"
Cc1ccc(C)c(-c2ccc(=O)n(Cc3c(F)cccc3Cl)n2)c1,-14.9%,–,–
COc1ccc(N2CCN(C(=O)CCN3C(=S)NC(C)(C)CC3C)CC2)cc1 (stereo unspecified),-2.96%,–,–
COc1ccc(OC)c(NC(=O)CN2C(=O)C(=O)N(Cc3ccccc3)C2=O)c1,–,–,"4610 nM [falling, full curve, poor fit]"

# Retrieved by structure from the list above, 4 records:
Compound,cell number change,AC50 [1],AC50 [2]
Cc1ccc(C(=O)OC(C)C(=O)NC2CCCCC2C)s1 (stereo unspecified),3.67%,–,"5.17 nM [rising, full curve, poor fit]"
Cc1oc(-c2ccccc2F)nc1CN1CCC(C(=O)NCc2cccs2)CC1,15%,–,–
CC(CC(=O)N(CCC1=CCCCC1)c1c(N)n(Cc2ccccc2)c(=O)[nH]c1=O)c1ccccc1 (stereo unspecified),-32.6%,"29100 nM [falling, single point]",–
Cc1cccc(C(=O)n2cnnc2N)c1,-0.264%,–,–
